System: MCF7 cells
Assay: Ingenuity Pathway Analysis of the proteomics datasets
Design: species or system Human
Settings: 10 µM, 48 hours vs vehicle
[1] = IPA biological function, Cell Cycle, DNA Replication, Recombination, and Repair
[2] = IPA biological function, Cell Morphology, Cellular Function and Maintenance, DNA Replication, Recombination, and Repair
[3] = IPA biological function, Cell Morphology
[4] = IPA biological function, Cellular Assembly and Organization
[5] = IPA biological function, Cellular movement

COc1cc(-n2c(=S)[nH]c3ccccc3c2=O)c(Cl)cc1Cl [mDIVI1, 3-(2,4-Dichloro-5-methoxyphenyl) 2,3-dihydro 2-thioxo-4(1H) quinazolinone]
Activation z-score, Cytokinesis (IPA biological function, Cell Cycle, Cellular Movement): −0.669
Activation z-score, Homologous recombination [1]: −1.387
Activation z-score, Homologous recombination of cells [1]: −1.732
Activation z-score, Recombination of cells [1]: −1.732
Activation z-score, Cell cycle progression (IPA biological function, Cell Cycle): −1.762
Activation z-score, Cell viability (IPA biological function, Cell Death and Survival): −2.813
Activation z-score, Double-stranded DNA break repair of cells [2]: 2.069
Activation z-score, Repair of cells [2]: 1.921
Activation z-score, Cell spreading [3]: −1.633
Activation z-score, Shape change of tumour cell lines [3]: −1.446
Activation z-score, Formation of cytoskeleton [4]: 1.95
Activation z-score, Formation of nucleus [4]: −2
Activation z-score, Endocytosis (IPA biological function, Cellular Function and Maintenance): −1.832
Activation z-score, Cell movement [5]: −1.295
Activation z-score, Cell movement of breast cancer cell lines [5]: −1.968
Activation z-score, Cell movement of tumour cell lines [5]: −1.628
Activation z-score, Invasion of cells [5]: −1.806
Activation z-score, Invasion of tumour cell lines [5]: −1.652
Activation z-score, Migration of tumour cell lines [5]: −1.164
Activation z-score, Double-stranded DNA break repair (IPA biological function, DNA Replication, Recombination, and Repair): 2.123
Activation z-score, Transcription (IPA biological function, Gene Expression): 1.993
Ratio, AMPK Signaling (IPA canonical pathway): 0.101
Ratio, Actin Cytoskeleton Signaling (IPA canonical pathway): 0.176
Ratio, Actin Nucleation by ARP-WASP Complex (IPA canonical pathway): 0.196
Ratio, Agranulocyte Adhesion and Diapedesis (IPA canonical pathway): 0.0857
Ratio, Apoptosis Signaling (IPA canonical pathway): 0.114
Ratio, Assembly of RNA Polymerase I Complex (IPA canonical pathway): 0.333
Ratio, Axonal Guidance Signaling (IPA canonical pathway): 0.0703
Ratio, CDK5 Signaling (IPA canonical pathway): 0.0918
Ratio, Calcium Signaling (IPA canonical pathway): 0.1
Ratio, Caveolar-mediated Endocytosis Signaling (IPA canonical pathway): 0.239
Ratio, Cdc42 Signaling (IPA canonical pathway): 0.109
Ratio, Cell Cycle Control of Chromosomal Replication (IPA canonical pathway): 0.185
Ratio, Clathrin-mediated Endocytosis Signaling (IPA canonical pathway): 0.143
Ratio, Cleavage and Polyadenylation of Pre-mRNA (IPA canonical pathway): 0.333
Ratio, DNA Double-Strand Break Repair by Non-Homologous End Joining (IPA canonical pathway): 0.357
Ratio, DNA Methylation and Transcriptional Repression Signaling (IPA canonical pathway): 0.2
Ratio, Death Receptor Signaling (IPA canonical pathway): 0.11
Ratio, EIF2 Signaling (IPA canonical pathway): 0.173
Ratio, ERK/MAPK Signaling (IPA canonical pathway): 0.0909
Ratio, Ephrin Receptor Signaling (IPA canonical pathway): 0.0872
Ratio, Epithelial Adherens Junction Signaling (IPA canonical pathway): 0.189
Ratio, Estrogen Receptor Signaling (IPA canonical pathway): 0.125
Ratio, FAK Signaling (IPA canonical pathway): 0.153
Ratio, Fatty Acid Biosynthesis Initiation II (IPA canonical pathway): 1
Ratio, GM-CSF Signaling (IPA canonical pathway): 0.11
Ratio, Gap Junction Signaling (IPA canonical pathway): 0.0854
Ratio, Germ Cell-Sertoli Cell Junction Signaling (IPA canonical pathway): 0.183
Ratio, ILK Signaling (IPA canonical pathway): 0.161
Ratio, Integrin Signaling (IPA canonical pathway): 0.156
Ratio, Ketolysis (IPA canonical pathway): 0.286
Ratio, Leukocyte Extravasation Signaling (IPA canonical pathway): 0.122
Ratio, Mevalonate Pathway I (IPA canonical pathway): 0.25
Ratio, Mitotic Roles of Polo-Like Kinase (IPA canonical pathway): 0.206
Ratio, PAK Signaling (IPA canonical pathway): 0.11
Ratio, Palmitate Biosynthesis I (IPA canonical pathway): 1
Ratio, Paxillin Signaling (IPA canonical pathway): 0.2
Ratio, Pentose Phosphate Pathway (IPA canonical pathway): 0.3
Ratio, Phagosome maturation (IPA canonical pathway): 0.178
Ratio, Protein Kinase A Signaling (IPA canonical pathway): 0.0775
Ratio, Protein Ubiquitination Pathway (IPA canonical pathway): 0.114
Ratio, RAN Signaling (IPA canonical pathway): 0.25
Ratio, Rac Signaling (IPA canonical pathway): 0.112
Ratio, Regulation of Actin-based Motility by Rho (IPA canonical pathway): 0.207
Ratio, Regulation of Cellular Mechanics by Calpain Protease (IPA canonical pathway): 0.236
Ratio, Regulation of eIF4 and p70S6K Signaling (IPA canonical pathway): 0.175
Ratio, Remodeling of Epithelial Adherens Junctions (IPA canonical pathway): 0.348
Ratio, RhoA Signaling (IPA canonical pathway): 0.158
Ratio, RhoGDI Signaling (IPA canonical pathway): 0.134
Ratio, Role of BRCA1 in DNA Damage Response (IPA canonical pathway): 0.179
Ratio, Sertoli Cell-Sertoli Cell Junction Signaling (IPA canonical pathway): 0.156
Ratio, Signaling by Rho Family GTPases (IPA canonical pathway): 0.102
Ratio, Superpathway of Cholesterol Biosynthesis (IPA canonical pathway): 0.222
Ratio, Telomere Extension by Telomerase (IPA canonical pathway): 0.267
Ratio, Tight Junction Signaling (IPA canonical pathway): 0.175
Ratio, Unfolded protein response (IPA canonical pathway): 0.132
Ratio, mTOR Signaling (IPA canonical pathway): 0.123
Z score, Actin Nucleation by ARP-WASP Complex (IPA canonical pathway): −1.51
Z score, ERK/MAPK Signaling (IPA canonical pathway): −0.47
Z score, Mitotic Roles of Polo-Like Kinase (IPA canonical pathway): 0.82
Z score, Protein Kinase A Signaling (IPA canonical pathway): −1.61
Z score, Regulation of Cellular Mechanics by Calpain Protease (IPA canonical pathway): −2.24
Ratio, Cholesterol Biosynthesis (Ingenuity Toxicity Lists): 0.312
Ratio, Decreases Permeability Transition of Mitochondria and Mitochondrial Membrane (Ingenuity Toxicity Lists): 0.429
Ratio, Fatty Acid Metabolism (Ingenuity Toxicity Lists): 0.133

Source: paper PMC5862576, “Mitochondrial fission as a driver of stemness in tumor cells: mDIVI1 inhibits mitochondrial function, cell migration and cancer stem cell (CSC) signalling” (Oncotarget, 2018)
